Laboratory results: US20100260817
Negatives hold for the conditions tested.

Protein sequences, listed by entry. Tags and fused reporters are not part of them. Lines headed by an entry give the natural chain unless they say otherwise; changes in a name come on top.
UniProt Q04609: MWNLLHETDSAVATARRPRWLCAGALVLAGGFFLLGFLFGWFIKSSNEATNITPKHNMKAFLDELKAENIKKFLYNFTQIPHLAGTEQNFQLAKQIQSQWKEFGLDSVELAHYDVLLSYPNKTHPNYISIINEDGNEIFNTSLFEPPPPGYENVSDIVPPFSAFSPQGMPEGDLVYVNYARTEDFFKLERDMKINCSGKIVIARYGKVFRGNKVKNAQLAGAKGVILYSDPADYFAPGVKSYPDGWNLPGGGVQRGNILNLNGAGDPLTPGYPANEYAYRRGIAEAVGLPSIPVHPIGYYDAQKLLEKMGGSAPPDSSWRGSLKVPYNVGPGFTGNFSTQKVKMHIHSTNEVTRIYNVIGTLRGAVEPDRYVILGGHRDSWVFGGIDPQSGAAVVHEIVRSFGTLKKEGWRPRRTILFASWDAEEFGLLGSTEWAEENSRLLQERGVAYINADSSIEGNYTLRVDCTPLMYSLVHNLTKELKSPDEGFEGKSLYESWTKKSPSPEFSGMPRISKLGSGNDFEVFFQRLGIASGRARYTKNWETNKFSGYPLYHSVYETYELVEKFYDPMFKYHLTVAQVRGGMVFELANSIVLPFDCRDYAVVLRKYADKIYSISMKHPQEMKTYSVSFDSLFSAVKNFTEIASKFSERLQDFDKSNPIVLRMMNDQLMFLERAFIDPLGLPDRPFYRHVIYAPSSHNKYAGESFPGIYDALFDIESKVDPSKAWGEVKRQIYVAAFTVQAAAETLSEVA

Molecular target: Prostate specific membrane antigen (PSMA) (UniProt Q04609)
Experiment: activity in cells
Conditions: no depletion of Cav-1 transcript in LNCaP cells versus non-silencing control; described as non-binding mutant aptamer; protein on the cell surface; protein details: endogenous on LNCaP cells; variant of PSMA aptamer with 3' uridine tail; dose not given here

GGGAGGACGAUGCGGAUCAGCCAUCCUUACGUCACUCCUAAUUUUUUUUUUUUUUUUUUUU [mutant PSMA aptamer (non-binding)]
functional effect of the aptamer: not active
